Data: patent US20210338783

Test system: RuvA/RuvB/RuvC complex (RuvABC) (Escherichia coli)
Assay: enzyme reaction in vitro
Settings: 20 nM HJ DNA, RuvA 160 nM, RuvB 240 nM, RuvC 160 nM; Mg2+ (10 mM) dependent; also cleaves HJ prebound with E. coli HU; 37 C; purified recombinant protein; protein details: tagless, RuvB and RuvC via IMPACT intein (NEB); label: 5'-FAM on SEQ 13 strand; folded or branched DNA

## GACGCTGCCGAATTCTGGCTTGCTAGGACATCTTTGCCCACGTTGACCC / TGGGTCAACGTGGGCAAAGATGTCCTAGCAATGTAATCGTCTATGACGTT / CAACGTCATAGACGATTACATTGCTAGGACATGCTGTCTAGAGACTATCGA / ATCGATAGTCTCTAGACAGCATGTCCTAGCAAGCCAGAATTCGGCAGCGT [synthetic Holliday junction DNA]
  activity on this sequence: active

The exact form of at least one protein or probe is not confirmed.
